# Reference: paper doi:10.1101/2024.10.07.616967
# By UniProt entry, the sequences of proteins in these tests, tags left out. Residues count along the entry.
# UniProt Q70CQ3: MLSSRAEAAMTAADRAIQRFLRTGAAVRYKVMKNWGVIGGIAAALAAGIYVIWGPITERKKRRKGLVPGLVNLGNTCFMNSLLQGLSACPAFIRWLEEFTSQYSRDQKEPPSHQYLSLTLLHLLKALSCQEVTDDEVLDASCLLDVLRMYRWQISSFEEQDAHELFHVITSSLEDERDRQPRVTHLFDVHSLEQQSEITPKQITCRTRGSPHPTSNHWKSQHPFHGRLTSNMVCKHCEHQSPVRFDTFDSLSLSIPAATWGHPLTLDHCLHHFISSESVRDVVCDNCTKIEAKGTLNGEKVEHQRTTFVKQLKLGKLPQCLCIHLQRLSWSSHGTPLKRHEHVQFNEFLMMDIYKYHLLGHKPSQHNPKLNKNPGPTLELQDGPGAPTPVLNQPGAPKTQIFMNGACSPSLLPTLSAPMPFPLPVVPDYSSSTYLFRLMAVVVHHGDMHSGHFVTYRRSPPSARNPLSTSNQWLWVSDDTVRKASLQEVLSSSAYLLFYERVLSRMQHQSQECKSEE
# UniProt O95202, residues 116-739: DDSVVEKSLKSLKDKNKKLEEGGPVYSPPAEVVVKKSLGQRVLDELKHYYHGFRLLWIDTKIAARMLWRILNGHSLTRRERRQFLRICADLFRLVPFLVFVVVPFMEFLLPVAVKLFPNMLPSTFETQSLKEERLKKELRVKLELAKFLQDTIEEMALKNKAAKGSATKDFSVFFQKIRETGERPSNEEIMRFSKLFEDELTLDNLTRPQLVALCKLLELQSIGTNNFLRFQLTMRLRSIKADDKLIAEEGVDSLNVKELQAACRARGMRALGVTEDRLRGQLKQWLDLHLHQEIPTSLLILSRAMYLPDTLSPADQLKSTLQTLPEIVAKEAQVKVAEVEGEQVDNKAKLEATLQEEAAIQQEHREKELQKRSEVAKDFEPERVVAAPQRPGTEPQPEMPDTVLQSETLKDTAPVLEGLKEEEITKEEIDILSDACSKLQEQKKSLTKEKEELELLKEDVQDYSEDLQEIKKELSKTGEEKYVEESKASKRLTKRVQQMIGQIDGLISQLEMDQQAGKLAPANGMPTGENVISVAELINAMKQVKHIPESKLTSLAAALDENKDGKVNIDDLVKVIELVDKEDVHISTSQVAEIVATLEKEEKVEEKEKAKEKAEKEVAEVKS
# UniProt Q15388: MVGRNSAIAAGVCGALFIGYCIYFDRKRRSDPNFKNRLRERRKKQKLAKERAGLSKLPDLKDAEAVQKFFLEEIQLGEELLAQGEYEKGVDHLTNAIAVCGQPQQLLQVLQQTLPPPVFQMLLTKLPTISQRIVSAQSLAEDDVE
# Results are given in words; binding and its absence hold for the method and conditions named. Binding seen in cells or lysates may run through a third protein. Some binding calls cover weakened binding; strength is not graded here.
# Key:
# Flag-USP30 [1] = biological target: Flag-USP30 (UniProt Q70CQ3); assay: proximity ligation
# [2] = biological target: LETM1, endogenous in SH-SY5Y cells (human (endogenous in SH-SY5Y)) (UniProt O95202); assay: co-IP
# Flag-USP30 [3] = biological target: Flag-USP30 (UniProt Q70CQ3); assay: co-IP
Substance,binding (Flag-USP30 [1]),binding [2],binding (Flag-USP30 [3])
"TOMM20, endogenous in HEK293 cells (from UniProt Q15388 1-145)",binds,–,–
"TOMM20, endogenous in SH-SY5Y cells (from UniProt Q15388 1-145)",–,binds,–
"leucine-containing zipper and EF-hand transmembrane protein 1 (LETM1), endogenous in HEK293 cells (from UniProt O95202 116-739)",binds,–,binds
